Experimental data reported in US20260108572A1, “ALZHEIMER-TYPE DEMENTIA SUPPRESSANT, AND METHOD FOR PRODUCING SAME” (Sakamoto Yakusouen, LLC, priority 2022, published 2026).

Test system: senescence-accelerated model mouse SAM-P8
Experiment: Genome expression (RNA sequencing, PCA) in the whole brain of senescence-accelerated model mice after oral administration
Type: in vivo
Conditions: oral 7 days: donepezil 5 mg/kg, acteoside 100 mg/kg, SSa extract powder 500 mg/kg, brain after 30 days

COc1cc2c(cc1OC)C(=O)C(CC1CCN(Cc3ccccc3)CC1)C2 (stereo not shown) [donepezil]
Difference of expression pattern from the control group on PC1 axis (PCA, gene and exon level): not a large difference
